In EP4676953A2:
These are yes or no findings as the source states them, for the method shown. Some entries that bind do so weakly or less than the wild type.

Protein sequences, listed by entry. Tags and fused reporters are not part of them. Residues count along the entry.
UniProt P49862, residues 30-253: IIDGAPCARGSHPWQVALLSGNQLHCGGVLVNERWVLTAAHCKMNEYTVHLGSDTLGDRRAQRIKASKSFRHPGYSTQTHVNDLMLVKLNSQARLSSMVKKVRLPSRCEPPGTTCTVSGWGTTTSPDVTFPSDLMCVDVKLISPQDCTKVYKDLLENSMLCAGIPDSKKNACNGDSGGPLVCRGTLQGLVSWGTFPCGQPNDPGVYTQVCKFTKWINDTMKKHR

Target: active form of human KLK7 (huKLK7) (human) (UniProt P49862)
Assay: Biacore sandwich binning, SPINK5 coupled to CM5 chip (legend of FIG. 6)

B1: recombinant human SPINK5 (protein, UniProt Q9NQ38 490-757, looked up)
chain: EAAKEICSEFRDQVRNGTLICTREHNPVRGPDGKMHGNKCAMCASVFKLEEEEKKNDKEEKGKVEAEKVKREAVQELCSEYRHYVRNGRLPCTRENDPIEGLDGKIHGNTCSMCEAFFQQEAKEKERAEPRAKVKREAEKETCDEFRRLLQNGKLFCTRENDPVRGPDGKTHGNKCAMCKAVFQKENEERKRKEEEDQRNAAGHGSSGGGGGNTQDECAEYREQMKNGRLSCTRESDPVRDADGKSYNNQCTMCKAKLEREAERKNEY
binding: binds
